Measurements: PubChem BioAssay AID248 (DTP/NCI, 2004)
The list is a part of this screen's results and no random one: it is rich in T/C values a quarter to a half above the control, in often repeated tests (any T/C) and in doses without a T/C. Other doses and runs of a compound stand elsewhere. T/C gives the treated animals as a percentage of the vehicle group. Some doses have a count of surviving animals in place of a T/C: the source holds a T/C of zero for them, seemingly a mark for toxic or unscored doses. Some survivor counts are full or nearly so, which does not show that the dose was tolerated: survival well below the control is almost never listed, so the zero probably covers shortened survival too. Survivors were counted at the toxicity check, usually on the fifth day, unless a day is given; later deaths do not show. Schedules are NCI's codes, taken here to give the interval after Q, in days (D) or hours (H), and the number of doses after X. Some schedule codes hold Z or #, which are not explained here. Some structures stand for samples that the source files as different forms (salt, stereo form or complex); doses refer to the form tested.

Tested on: L1210 leukemia ip in BDF1 mice, survival T/C
Assay: NCI In Vivo Anticancer Drug Screen. Data for tumor model L1210 Leukemia (intraperitoneal) in B6D2F1 (BDF1) mice
Details: T/C endpoint: mean survival time, higher T/C = longer survival
[1] = dose: 100.0 mg/kg/injection, schedule: Q01DX009 (ip), vehicle: saline with Tween-80
[2] = dose: 12.5 mg/kg/injection, schedule: Q01DX009 (ip), vehicle: saline
[3] = dose: 50.0 mg/kg/injection, schedule: Q04DX003 (ip), vehicle: saline
[4] = dose: 100.0 mg/kg/injection, schedule: Q04DX003 (ip), vehicle: saline
[5] = dose: 200.0 mg/kg/injection, schedule: Q01DX001 (ip), vehicle: saline
[6] = dose: 300.0 mg/kg/injection, schedule: Q01DX001 (ip), vehicle: saline
[7] = dose: 400.0 mg/kg/injection, schedule: Q01DX001 (ip), vehicle: saline

NC(=O)/C(=C\c1ccncc1)c1cccc2ccccc12
survivor count (dose: 400.0 mg/kg/injection, schedule: Q01DX009 (ip), vehicle: Klucel (hydroxypropylcellulose) (HPC)): 4 of 6 | survivor count (dose: 400.0 mg/kg/injection, schedule: Q04DX003 (ip), vehicle: saline with Tween-80): 6 of 6

Cc1cc2nc(Cc3ccccc3)[nH]c2cc1C
survivor count [1]: 6 of 6 | survivor count (dose: 200.0 mg/kg/injection, schedule: Q01DX009 (ip), vehicle: saline with Tween-80): 6 of 6

Cc1cncc2c(=O)n(-c3ccccc3)n(C)c12
survivor count (dose: 200.0 mg/kg/injection, schedule: Q01DX009 (ip), vehicle: Klucel (hydroxypropylcellulose) (HPC)): 3 of 3

Cc1cccc2cc3cccc[n+]3cc12
survivor count [2]: 1 of 6 | survivor count (dose: 25.0 mg/kg/injection, schedule: Q04DX003 (ip), vehicle: saline): 6 of 6 | survivor count [3]: 6 of 6 | survivor count [4]: 0 of 6 | survivor count (dose: 200.0 mg/kg/injection, schedule: Q04DX003 (ip), vehicle: saline): 0 of 6 | survivor count (dose: 400.0 mg/kg/injection, schedule: Q04DX003 (ip), vehicle: saline): 0 of 6

C[N+](C)(Cc1ccccc1)Cc1ccccc1
survivor count (dose: 50.0 mg/kg/injection, schedule: Q01DX001 (ip), vehicle: saline): 1 of 4 | survivor count (dose: 100.0 mg/kg/injection, schedule: Q01DX001 (ip), vehicle: saline): 0 of 4 | survivor count (dose: 150.0 mg/kg/injection, schedule: Q01DX001 (ip), vehicle: saline): 1 of 6 | survivor count [5]: 0 of 4 | survivor count [6]: 1 of 6 | survivor count [7]: 0 of 4

CCOc1ccn(C)c(=O)n1
survivor count [5]: 1 of 4 | survivor count [7]: 0 of 4

C#CCOc1ccccc1O
survivor count (dose: 200.0 mg/kg/injection, schedule: Q01DX009 (ip), vehicle: acetone): 5 of 6

CCCCC(CC)C(=O)[O][Pb]([CH3])([CH3])[CH3] (centres undefined)
survivor count (dose: 100.0 mg/kg/injection, schedule: Q01DX001 (ip), vehicle: saline with Tween-80): 0 of 6 | survivor count (dose: 200.0 mg/kg/injection, schedule: Q01DX001 (ip), vehicle: saline with Tween-80): 0 of 6 | survivor count (dose: 400.0 mg/kg/injection, schedule: Q01DX001 (ip), vehicle: saline with Tween-80): 0 of 6

COC1C=CC2C3Cc4ccc(O)c5c4C2(CCN3C)C1O5 (centres undefined)
survivor count [6]: 0 of 6

OCCCNc1nc2ccccc2c2ccccc12
survivor count (dose: 400.0 mg/kg/injection, schedule: Q01DX009 (ip), vehicle: saline): 0 of 6

FC(F)(F)c1ccc2c(c1)N(CCCN1CCN(CCN3CCOCC3)CC1)c1ccccc1S2
survivor count (dose: 6.25 mg/kg/injection, schedule: Q01DX009 (ip), vehicle: saline): 6 of 6 | survivor count [2]: 6 of 6 | survivor count (dose: 25.0 mg/kg/injection, schedule: Q01DX009 (ip), vehicle: saline): 6 of 6 | survivor count [3]: 5 of 6 | survivor count [4]: 5 of 6

CCC1OC(=O)CC(O)C(C)C(OC2OC(C)CC(N(C)C)C2O)C(CC=O)CC(C)C(=O)/C=C/C2(C)OC2C1C (centres undefined)
survivor count (dose: 300.0 mg/kg/injection, schedule: Q01DX009 (ip), vehicle: saline with Tween-80): 0 of 6

CCOC(=O)CC1NCCC2C1CCC(OC)C2OC (centres undefined)
survivor count [1]: 6 of 6 | survivor count (dose: 400.0 mg/kg/injection, schedule: Q04DX003 (ip), vehicle: Klucel (hydroxypropylcellulose) (HPC)): 3 of 6

CCOC1=C(NC(C)=O)C(=O)c2ccccc2C1=O
survivor count (dose: 150.0 mg/kg/injection, schedule: Q01DX001 (ip), vehicle: other): 0 of 6 | survivor count (dose: 300.0 mg/kg/injection, schedule: Q01DX001 (ip), vehicle: other): 0 of 6

COc1ccc(C(C(C)=O)N2CCN(c3ccccc3)CC2)cc1 (centres undefined)
survivor count (dose: 400.0 mg/kg/injection, schedule: Q04DX003 (ip), vehicle: other): 2 of 6

O=C(Nc1ncccn1)c1ccc(Cl)cc1Cl
survivor count (dose: 200.0 mg/kg/injection, schedule: Q04DX003 (ip), vehicle: saline with Tween-80): 6 of 6

Cc1ccc(Nc2nc(N)nc(N)c2N)cc1
survivor count (dose: 100.0 mg/kg/injection, schedule: Q01DX Z (ip), vehicle: saline): 0 of 6 | survivor count (dose: 200.0 mg/kg/injection, schedule: Q01DX Z (ip), vehicle: saline): 0 of 6
